{"sequences": {"note": "Protein sequences, listed by entry. Tags and fused reporters are not part of them. Lines headed by an entry give the natural chain unless they say otherwise; changes in a name come on top.", "UniProt E0ZPS2": "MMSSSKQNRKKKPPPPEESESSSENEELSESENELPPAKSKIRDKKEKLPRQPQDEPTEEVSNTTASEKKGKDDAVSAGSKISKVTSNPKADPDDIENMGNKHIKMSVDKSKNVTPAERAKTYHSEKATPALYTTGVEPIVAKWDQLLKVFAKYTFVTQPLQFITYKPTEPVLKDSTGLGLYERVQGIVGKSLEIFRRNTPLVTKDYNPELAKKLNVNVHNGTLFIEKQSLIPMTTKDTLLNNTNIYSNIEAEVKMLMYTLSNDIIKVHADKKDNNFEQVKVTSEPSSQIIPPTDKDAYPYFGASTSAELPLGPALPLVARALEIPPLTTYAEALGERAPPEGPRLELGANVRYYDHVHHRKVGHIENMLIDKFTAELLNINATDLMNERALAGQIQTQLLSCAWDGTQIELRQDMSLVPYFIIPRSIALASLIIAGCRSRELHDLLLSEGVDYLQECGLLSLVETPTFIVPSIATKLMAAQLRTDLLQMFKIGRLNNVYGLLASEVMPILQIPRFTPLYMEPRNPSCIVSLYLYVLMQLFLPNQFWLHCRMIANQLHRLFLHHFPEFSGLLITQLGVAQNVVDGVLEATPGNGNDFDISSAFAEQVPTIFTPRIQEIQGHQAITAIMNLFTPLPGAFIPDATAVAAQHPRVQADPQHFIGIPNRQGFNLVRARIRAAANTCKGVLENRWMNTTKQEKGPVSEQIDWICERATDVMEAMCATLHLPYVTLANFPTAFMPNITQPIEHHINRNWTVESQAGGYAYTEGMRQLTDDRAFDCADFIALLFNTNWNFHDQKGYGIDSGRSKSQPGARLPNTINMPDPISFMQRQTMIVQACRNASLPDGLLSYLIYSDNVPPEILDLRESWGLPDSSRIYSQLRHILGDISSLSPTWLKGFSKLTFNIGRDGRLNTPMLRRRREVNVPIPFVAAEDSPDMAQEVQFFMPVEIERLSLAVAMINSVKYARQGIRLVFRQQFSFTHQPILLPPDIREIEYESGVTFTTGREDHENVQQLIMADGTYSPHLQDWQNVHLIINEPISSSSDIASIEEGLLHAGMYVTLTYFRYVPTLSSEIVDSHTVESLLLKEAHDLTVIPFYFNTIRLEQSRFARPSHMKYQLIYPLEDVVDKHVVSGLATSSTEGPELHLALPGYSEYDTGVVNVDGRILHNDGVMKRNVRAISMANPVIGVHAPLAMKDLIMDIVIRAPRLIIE", "UniProt E0ZPS1": "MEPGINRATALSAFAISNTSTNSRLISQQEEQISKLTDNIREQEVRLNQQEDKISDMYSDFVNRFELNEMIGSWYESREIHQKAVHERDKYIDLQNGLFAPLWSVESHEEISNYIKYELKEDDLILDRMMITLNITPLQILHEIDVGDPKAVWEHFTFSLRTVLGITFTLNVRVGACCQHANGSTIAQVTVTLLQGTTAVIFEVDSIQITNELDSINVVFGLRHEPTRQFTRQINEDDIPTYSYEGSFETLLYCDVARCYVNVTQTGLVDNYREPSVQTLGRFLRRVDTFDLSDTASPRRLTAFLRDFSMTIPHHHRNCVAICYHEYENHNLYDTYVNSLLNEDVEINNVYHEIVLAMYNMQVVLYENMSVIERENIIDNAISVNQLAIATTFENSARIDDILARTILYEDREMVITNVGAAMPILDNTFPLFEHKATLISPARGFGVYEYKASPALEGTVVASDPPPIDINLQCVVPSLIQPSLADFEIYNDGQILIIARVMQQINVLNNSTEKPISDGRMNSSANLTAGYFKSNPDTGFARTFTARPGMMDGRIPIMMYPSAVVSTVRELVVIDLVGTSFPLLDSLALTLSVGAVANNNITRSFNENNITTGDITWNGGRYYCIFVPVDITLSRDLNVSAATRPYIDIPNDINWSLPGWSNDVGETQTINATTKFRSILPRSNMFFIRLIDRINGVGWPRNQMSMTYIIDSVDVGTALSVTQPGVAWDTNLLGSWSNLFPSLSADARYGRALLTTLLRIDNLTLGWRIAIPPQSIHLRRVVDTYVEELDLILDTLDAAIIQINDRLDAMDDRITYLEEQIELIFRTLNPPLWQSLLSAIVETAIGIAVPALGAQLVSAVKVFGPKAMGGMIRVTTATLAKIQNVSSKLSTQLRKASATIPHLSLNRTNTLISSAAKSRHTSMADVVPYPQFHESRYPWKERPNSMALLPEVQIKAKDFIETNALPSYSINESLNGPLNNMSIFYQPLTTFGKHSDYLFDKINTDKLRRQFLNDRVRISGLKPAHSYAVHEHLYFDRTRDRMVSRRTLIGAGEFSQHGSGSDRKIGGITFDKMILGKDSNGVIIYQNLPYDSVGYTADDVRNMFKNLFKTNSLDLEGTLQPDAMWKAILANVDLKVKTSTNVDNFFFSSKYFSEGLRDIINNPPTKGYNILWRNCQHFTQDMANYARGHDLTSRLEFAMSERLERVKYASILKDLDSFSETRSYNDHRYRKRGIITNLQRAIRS"}, "source": "paper PMC2927528", "biological_target": "AmCPV S3 encoded protein p137 (recombinant, from baculovirus-infected Sf9 cells) (Antheraea mylitta cytoplasmic polyhedrosis virus (AmCPV)) (UniProt E0ZPS2)", "assay": "co-sedimentation; Sf9 cells co-infected with S1 and S3 recombinant baculoviruses; VLPs purified on a 10-40% sucrose density gradient and pelleted; SDS-8% PAGE (Coomassie) and immunoblot with anti-p137 and anti-p141 antibodies", "note": "These are yes or no findings as the source states them, for the method shown. Binding seen in cells or lysates may run through a third protein. Binding can be weak; no strength is given."}
{"substance": "AmCPV S1 encoded protein p141 (recombinant, from baculovirus-infected Sf9 cells) (from UniProt E0ZPS1)", "values": [{"measurement": "binding", "result": "binds"}]}
